Measured values: patent US10123537B2, “Amide compound or salt thereof, agricultural and horticultural insecticide and microbicide comprising the compound, and method for using the insecticide and microbicide” (NIHON NOHYAKU CO., LTD., priority 2013, dated 2018)
Some entries share one result that the patent states for a list of compounds.

How the values were obtained:
Type in all cases: in vivo
Plutella xylostella = test: Insecticidal test on Plutella xylostella; conditions: 500 ppm, Chinese cabbage seedlings with laid eggs dipped about 30 seconds, 25° C., 6 days after dip treatment
From the text: Insecticidal Test on Plutella xylostella
Adults of Plutella xylostella were released onto Chinese cabbage seedlings and allowed to lay eggs thereon. At 2 days after the release of the adults, the Chinese cabbage seedlings with laid eggs were dipped for about 30 seconds in agrochemical formulations diluted to 500 ppm, each of which contained a different amide compound represented by the general formula (I) of the present invention as an active ingredient. After air-dried, the seedlings were kept in a thermostatic chamber at 25° C. At 6 days after the dip treatment, the number of hatched larvae per plot was counted, the mortality rate was calculated according to the formula shown below, and the insecticidal effect was evaluated according to the criteria of Test Example 1. This test was conducted in triplicate using 10 adults of Plutella xylostella per plot. Corrected mortality rate (%)=100×(Number of hatched larvae in a non-treatment plot−Number of hatched larvae in a treatment plot)/Number of hatched larvae in a non-treatment plot

Myzus persicae = test: Test of control effect on Myzus persicae; conditions: 500 ppm, foliar application to potted Chinese cabbage, 6 days after application
Laodelphax striatella = test: Insecticidal test on Laodelphax striatella; conditions: 500 ppm, rice seedlings dipped 30 seconds, 3rd-instar larvae, 8 days after inoculation
From the text: Insecticidal Test on Laodelphax striatella
The amide compounds represented by the general formula (I) of the present invention or salts thereof were separately dispersed in water and diluted to 500 ppm, and rice plant seedlings (variety: Nihonbare) were dipped in the agrochemical dispersions for 30 seconds. After air-dried, each seedling was put into a separate glass test tube and inoculated with ten 3rd-instar larvae of Laodelphax striatella, and then the glass test tubes were capped with cotton plugs. At 8 days after the inoculation, the numbers of surviving larvae and dead larvae were counted, the corrected mortality rate was calculated according to the formula shown below, and the insecticidal effect was evaluated according to the criteria of Test Example 1. Corrected mortality rate (%)=100×(Survival rate in a non-treatment plot−Survival rate in a treatment plot)/Survival rate in a non-treatment plot

CCSc1cc(C(F)(F)F)ccc1C(=O)N(C)c1ccc(C(F)(F)C(F)(F)F)cn1 [Compound 1-25]
A (the control rate is 100%): insecticidal effect (corrected mortality rate, hatched larvae) activity level (Plutella xylostella) | control effect (control rate) activity level (Myzus persicae) | insecticidal effect (corrected mortality rate) activity level (Laodelphax striatella)

CCS(=O)(=O)c1cc(C(F)(F)F)ccc1C(=O)N(C)c1ccc(C(F)(F)C(F)(F)F)cn1 [Compound 1-26]
A (the control rate is 100%): insecticidal effect (corrected mortality rate, hatched larvae) activity level (Plutella xylostella) | control effect (control rate) activity level (Myzus persicae) | insecticidal effect (corrected mortality rate) activity level (Laodelphax striatella)

CCSc1cc(C(F)(F)F)ccc1C(=O)N(C)c1ccc(Cl)cn1 [Compound 1-36]
A (the control rate is 100%): insecticidal effect (corrected mortality rate, hatched larvae) activity level (Plutella xylostella) | control effect (control rate) activity level (Myzus persicae) | insecticidal effect (corrected mortality rate) activity level (Laodelphax striatella)

CCSc1cc(C(F)(F)C(F)(F)F)ccc1C(=O)N(C)c1ccc(C(F)(F)F)cn1 [Compound 1-42]
A (the control rate is 100%): insecticidal effect (corrected mortality rate, hatched larvae) activity level (Plutella xylostella) | control effect (control rate) activity level (Myzus persicae) | insecticidal effect (corrected mortality rate) activity level (Laodelphax striatella)

CC[S+]([O-])c1cc(C(F)(F)C(F)(F)F)ccc1C(=O)N(C)c1ccc(C(F)(F)F)cn1 (stereo not drawn) [Compound 1-43]
A (the control rate is 100%): insecticidal effect (corrected mortality rate, hatched larvae) activity level (Plutella xylostella) | control effect (control rate) activity level (Myzus persicae) | insecticidal effect (corrected mortality rate) activity level (Laodelphax striatella)

CCS(=O)(=O)c1cc(C(F)(F)C(F)(F)F)ccc1C(=O)N(C)c1ccc(C(F)(F)F)cn1 [Compound 1-44]
A (the control rate is 100%): insecticidal effect (corrected mortality rate, hatched larvae) activity level (Plutella xylostella) | control effect (control rate) activity level (Myzus persicae) | insecticidal effect (corrected mortality rate) activity level (Laodelphax striatella)

CCSc1cc(C(F)(F)F)ccc1C(=O)N(COC)c1ccc(C(F)(F)C(F)(F)F)cn1 [Compound 1-45]
A (the control rate is 100%): insecticidal effect (corrected mortality rate, hatched larvae) activity level (Plutella xylostella) | control effect (control rate) activity level (Myzus persicae) | insecticidal effect (corrected mortality rate) activity level (Laodelphax striatella)

CCS(=O)(=O)c1cc(C(F)(F)F)ccc1C(=O)N(COC)c1ccc(C(F)(F)C(F)(F)F)cn1 [Compound 1-46]
A (the control rate is 100%): insecticidal effect (corrected mortality rate, hatched larvae) activity level (Plutella xylostella) | control effect (control rate) activity level (Myzus persicae) | insecticidal effect (corrected mortality rate) activity level (Laodelphax striatella)

CCSc1cc(C(F)(F)F)ccc1C(=O)N(C)c1ccc(C(F)(F)F)nn1 [Compound 2-1]
A (the control rate is 100%): insecticidal effect (corrected mortality rate, hatched larvae) activity level (Plutella xylostella) | control effect (control rate) activity level (Myzus persicae) | insecticidal effect (corrected mortality rate) activity level (Laodelphax striatella)

CCS(=O)(=O)c1cc(C(F)(F)F)ccc1C(=O)N(C)c1ccc(C(F)(F)F)nn1 [Compound 2-3]
A (the control rate is 100%): insecticidal effect (corrected mortality rate, hatched larvae) activity level (Plutella xylostella) | control effect (control rate) activity level (Myzus persicae) | insecticidal effect (corrected mortality rate) activity level (Laodelphax striatella)

CCSc1cc(C(F)(F)C(F)(F)F)ccc1C(=O)N(C)c1ccc(C(F)(F)F)nn1 [Compound 2-4]
A (the control rate is 100%): insecticidal effect (corrected mortality rate, hatched larvae) activity level (Plutella xylostella) | control effect (control rate) activity level (Myzus persicae) | insecticidal effect (corrected mortality rate) activity level (Laodelphax striatella)

CCS(=O)(=O)c1cc(C(F)(F)C(F)(F)F)ccc1C(=O)N(C)c1ccc(C(F)(F)F)nn1 [Compound 2-6]
A (the control rate is 100%): insecticidal effect (corrected mortality rate, hatched larvae) activity level (Plutella xylostella) | control effect (control rate) activity level (Myzus persicae) | insecticidal effect (corrected mortality rate) activity level (Laodelphax striatella)

CCSc1cc(C(F)(F)F)ccc1C(=O)N(C)c1ccc(C(F)(F)F)cc1 [Compound 3-1]
A (the control rate is 100%): insecticidal effect (corrected mortality rate, hatched larvae) activity level (Plutella xylostella) | control effect (control rate) activity level (Myzus persicae) | insecticidal effect (corrected mortality rate) activity level (Laodelphax striatella)

CC[S+]([O-])c1cc(C(F)(F)F)ccc1C(=O)N(C)c1ccc(C(F)(F)F)cc1 (stereo not drawn) [Compound 3-2]
A (the control rate is 100%): insecticidal effect (corrected mortality rate, hatched larvae) activity level (Plutella xylostella) | control effect (control rate) activity level (Myzus persicae) | insecticidal effect (corrected mortality rate) activity level (Laodelphax striatella)

CCS(=O)(=O)c1cc(C(F)(F)F)ccc1C(=O)N(C)c1ccc(C(F)(F)F)cc1 [Compound 3-3]
A (the control rate is 100%): insecticidal effect (corrected mortality rate, hatched larvae) activity level (Plutella xylostella) | control effect (control rate) activity level (Myzus persicae) | insecticidal effect (corrected mortality rate) activity level (Laodelphax striatella)

CCSc1cc(C(F)(F)F)ccc1C(=O)N(C)c1ccc(C(F)(C(F)(F)F)C(F)(F)F)cc1 [Compound 3-7]
A (the control rate is 100%): insecticidal effect (corrected mortality rate, hatched larvae) activity level (Plutella xylostella) | control effect (control rate) activity level (Myzus persicae) | insecticidal effect (corrected mortality rate) activity level (Laodelphax striatella)

CCS(=O)(=O)c1cc(C(F)(F)F)ccc1C(=O)N(C)c1ccc(C(F)(C(F)(F)F)C(F)(F)F)cc1 [Compound 3-9]
A (the control rate is 100%): insecticidal effect (corrected mortality rate, hatched larvae) activity level (Plutella xylostella) | control effect (control rate) activity level (Myzus persicae) | insecticidal effect (corrected mortality rate) activity level (Laodelphax striatella)

CCSc1cc(C(F)(F)F)ccc1C(=O)N(C)c1ccc(C(C(F)(F)F)C(F)(F)F)cc1 [Compound 3-10]
A (the control rate is 100%): insecticidal effect (corrected mortality rate, hatched larvae) activity level (Plutella xylostella) | control effect (control rate) activity level (Myzus persicae) | insecticidal effect (corrected mortality rate) activity level (Laodelphax striatella)

CCS(=O)(=O)c1cc(C(F)(F)F)ccc1C(=O)N(C)c1ccc(C(C(F)(F)F)C(F)(F)F)cc1 [Compound 3-11]
A (the control rate is 100%): insecticidal effect (corrected mortality rate, hatched larvae) activity level (Plutella xylostella) | control effect (control rate) activity level (Myzus persicae) | insecticidal effect (corrected mortality rate) activity level (Laodelphax striatella)

CCSc1cc(C(F)(F)F)ccc1C(=O)N(COCCOC)c1ccc(SC(F)(F)F)cc1 [Compound 3-66]
A (the control rate is 100%): insecticidal effect (corrected mortality rate, hatched larvae) activity level (Plutella xylostella) | control effect (control rate) activity level (Myzus persicae) | insecticidal effect (corrected mortality rate) activity level (Laodelphax striatella)

CCS(=O)(=O)c1cc(C(F)(F)F)ccc1C(=O)N(COCCOC)c1ccc(SC(F)(F)F)cc1 [Compound 3-68]
A (the control rate is 100%): insecticidal effect (corrected mortality rate, hatched larvae) activity level (Plutella xylostella) | control effect (control rate) activity level (Myzus persicae) | insecticidal effect (corrected mortality rate) activity level (Laodelphax striatella)

CCSc1cc(C(F)(F)F)ccc1C(=O)N(CSC)c1ccc(SC(F)(F)F)cc1 [Compound 3-75]
A (the control rate is 100%): insecticidal effect (corrected mortality rate, hatched larvae) activity level (Plutella xylostella) | control effect (control rate) activity level (Myzus persicae) | insecticidal effect (corrected mortality rate) activity level (Laodelphax striatella)

CCSc1cc(OC(F)(F)F)ccc1C(=O)N(C)c1ccc(SC(F)(F)F)cc1 [Compound 3-78]
A (the control rate is 100%): insecticidal effect (corrected mortality rate, hatched larvae) activity level (Plutella xylostella) | control effect (control rate) activity level (Myzus persicae) | insecticidal effect (corrected mortality rate) activity level (Laodelphax striatella)

CC[S+]([O-])c1cc(OC(F)(F)F)ccc1C(=O)N(C)c1ccc(SC(F)(F)F)cc1 (stereo not drawn) [Compound 3-79]
A (the control rate is 100%): insecticidal effect (corrected mortality rate, hatched larvae) activity level (Plutella xylostella) | control effect (control rate) activity level (Myzus persicae) | insecticidal effect (corrected mortality rate) activity level (Laodelphax striatella)

CCS(=O)(=O)c1cc(OC(F)(F)F)ccc1C(=O)N(C)c1ccc(SC(F)(F)F)cc1 [Compound 3-80]
A (the control rate is 100%): insecticidal effect (corrected mortality rate, hatched larvae) activity level (Plutella xylostella) | control effect (control rate) activity level (Myzus persicae) | insecticidal effect (corrected mortality rate) activity level (Laodelphax striatella)

CCSc1cc(SC(F)(F)F)ccc1C(=O)N(C)c1ccc(SC(F)(F)F)cc1 [Compound 3-81]
A (the control rate is 100%): insecticidal effect (corrected mortality rate, hatched larvae) activity level (Plutella xylostella) | control effect (control rate) activity level (Myzus persicae) | insecticidal effect (corrected mortality rate) activity level (Laodelphax striatella)

CC[S+]([O-])c1cc(SC(F)(F)F)ccc1C(=O)N(C)c1ccc(SC(F)(F)F)cc1 (stereo not drawn) [Compound 3-82]
A (the control rate is 100%): insecticidal effect (corrected mortality rate, hatched larvae) activity level (Plutella xylostella) | control effect (control rate) activity level (Myzus persicae) | insecticidal effect (corrected mortality rate) activity level (Laodelphax striatella)
